Measured data: PubChem BioAssay AID686943 (Drosophila RNAi Screening Center, 2013)

Test: 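Fly genes whose loss alters ERK activation after insulin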 (primary screen)
Cell system: Drosophila S2R+ haemocyte-like cells expressing YFP-tagged ERK (Rolled)
Reagent: long dsRNA against Drosophila genes
Challenge: insulin stimulation versus unstimulated cells; dose and duration not given
Measurement: 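Per-plate z-scores of phospho-ERK immunostaining normalised to YFP-tagged ERK, measured with and without insulin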
Direction: replicate 1, z-score of dpERK with insulin: higher = more active ERK per ERK-YFP after insulin
The screen tested about 23,000 reagents; this is a random part of those that have a named target and a result. 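Extra replicates exist only for a retested subset of genes; insulin dose and duration not given; both raised and lowered dpERK matter.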 The numbers tell different reagents against one gene apart. Names joined by + are all predicted targets of the reagent. Further read-outs or replicates are left out here. Not stated in the record: the amount of reagent, the time to read-out.

predicted target | reagent | replicate 1, z-score of dpERK with insulin
CG34436 | 1 | -0.17
Pfrx | 1 | 0.93
Pfrx | 2 | 0.3
ogre | 1 | -0.44
mRpS16 | 1 | -1.15
CG8777 | 1 | 0.32
CR32745 | 1 | 0.02
CG13954 | 1 | -0.11
CG12926 | 1 | 0.45
CG12926 | 2 | -0.03
CG32267 | 1 | 0.42
mRpS2 | 1 | -0.18
CG3386 | 1 | -0.83
CG13380 + CG4174 | 1 | 0.19
CG13380 + CG4174 | 2 | -0.16
Tbcd | 1 | 0.31
CG43075 | 1 | -0.64
U2A | 1 | 0.88
CG6012 | 1 | 0.01
CG15365 | 1 | -2.65
chic | 1 | -0.5
Coq9 | 1 | -0.88
Zasp67 | 1 | 0.5
Ork1 | 1 | -0.2
CG13186 | 1 | 0.1
CG34011 | 1 | -0.72
pcs | 1 | 0.48
Hr83 | 1 | 0.34
Snap24 | 1 | 0.87
Cyp313a4 | 1 | 0.44
Pax | 1 | 0.51
Pax | 2 | 0.45
Pax | 3 | -0.45
Scox | 1 | -0.46
Top2 | 1 | 3.06
CG32053 | 1 | 0.18
mthl7 | 1 | 2.31
ord | 1 | -0.03
Cpr62Bc | 1 | 1.1
Eip63E | 1 | 1.15
CG3191 | 1 | 0.11
Prx2 | 1 | -0.34
CG12376 | 1 | 0.37
UQCR-C2 | 1 | -1.27
CG34267 | 1 | 0.28
PPP4R2r | 1 | 0.2
PPP4R2r | 2 | -0.41
Myo61F | 1 | -1.14
CG16762 | 1 | 0.43
CG11741 | 1 | -0.16
CG10064 | 1 | 0.24
meigo | 1 | 1.09
CG13310 | 1 | -0.56
CG14692 | 1 | -0.37
CG4229 | 1 | 0.02
Trx2 | 1 | 0.83
Set2 | 1 | 0.46

5 neighbouring entries already listed:
predicted target | reagent | replicate 1, z-score of dpERK with insulin
CG43075 | 1 | -0.64
U2A | 1 | 0.88
CG6012 | 1 | 0.01
CG15365 | 1 | -2.65
chic | 1 | -0.5
